The other results are listed elsewhere or left out.
Tests used:
Assay in all cases: log2 fold change, soluble protein after heating vs DMSO (PISA); higher = thermal stabilisation; K562 cells, 10 uM, 30 min; active = over 0.2 and 3.5 SD of the protein, either way, in both replicates (recomputed)
[1] = compound: CS(=O)(=O)c1ccc(-c2cnc(N)c(C(=O)Nc3ccccc3)n2)cc1
Summary of the method: (§1)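 Values are thermal stability changes relative to control samples and are taken from duplicates. They are stated as log2 fold changes. Before quantification by TMTpro 16plex LC-MS/MS with equalised channel sums, K562 cells at 2×10^6 cells/mL were treated with 10 μM compound for 30 min, heated in aliquots for 3 min across 48°C-58°C, pooled, extracted in PBS with 0.5% NP-40 at 4°C, and centrifuged at 21,000xg for 90 min to give the soluble supernatant.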

By UniProt entry, the sequences of proteins in these tests, tags left out. Where a name states a change or a piece, a line headed by the entry shows the natural chain unless it says otherwise.
UniProt P36969, whole entry, looked up: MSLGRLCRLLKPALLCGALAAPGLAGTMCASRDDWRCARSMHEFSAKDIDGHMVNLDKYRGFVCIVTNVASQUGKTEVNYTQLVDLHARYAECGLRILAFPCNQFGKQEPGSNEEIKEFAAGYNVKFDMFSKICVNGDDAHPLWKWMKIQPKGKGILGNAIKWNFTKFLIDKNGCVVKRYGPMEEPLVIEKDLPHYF
UniProt O94925: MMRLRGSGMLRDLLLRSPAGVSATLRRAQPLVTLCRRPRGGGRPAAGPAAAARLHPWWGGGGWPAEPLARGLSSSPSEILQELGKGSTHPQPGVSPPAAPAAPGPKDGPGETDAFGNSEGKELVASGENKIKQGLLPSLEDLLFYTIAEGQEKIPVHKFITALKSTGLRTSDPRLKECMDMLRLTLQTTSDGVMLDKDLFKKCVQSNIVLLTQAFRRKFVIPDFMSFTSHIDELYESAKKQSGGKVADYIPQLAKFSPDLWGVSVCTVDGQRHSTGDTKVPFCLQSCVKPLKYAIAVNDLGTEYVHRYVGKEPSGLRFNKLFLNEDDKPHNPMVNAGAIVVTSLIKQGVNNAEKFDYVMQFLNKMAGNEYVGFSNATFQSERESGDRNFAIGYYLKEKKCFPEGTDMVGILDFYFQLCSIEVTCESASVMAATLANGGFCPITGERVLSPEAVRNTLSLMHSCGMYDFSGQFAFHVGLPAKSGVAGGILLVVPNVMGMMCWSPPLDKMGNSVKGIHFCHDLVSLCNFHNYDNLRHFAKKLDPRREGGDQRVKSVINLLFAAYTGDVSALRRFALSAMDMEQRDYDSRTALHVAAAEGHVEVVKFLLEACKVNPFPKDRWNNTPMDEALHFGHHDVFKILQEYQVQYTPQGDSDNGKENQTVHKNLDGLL
UniProt O76003: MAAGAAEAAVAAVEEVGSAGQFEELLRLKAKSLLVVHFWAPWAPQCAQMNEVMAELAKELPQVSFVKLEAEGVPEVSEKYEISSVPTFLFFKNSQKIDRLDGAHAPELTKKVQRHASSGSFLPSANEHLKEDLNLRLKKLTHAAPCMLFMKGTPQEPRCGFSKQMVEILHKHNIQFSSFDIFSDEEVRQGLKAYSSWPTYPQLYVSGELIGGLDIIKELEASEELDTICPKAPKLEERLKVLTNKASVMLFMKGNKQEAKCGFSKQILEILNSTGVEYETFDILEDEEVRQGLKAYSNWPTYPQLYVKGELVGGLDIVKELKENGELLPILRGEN
UniProt P36915, whole entry, looked up: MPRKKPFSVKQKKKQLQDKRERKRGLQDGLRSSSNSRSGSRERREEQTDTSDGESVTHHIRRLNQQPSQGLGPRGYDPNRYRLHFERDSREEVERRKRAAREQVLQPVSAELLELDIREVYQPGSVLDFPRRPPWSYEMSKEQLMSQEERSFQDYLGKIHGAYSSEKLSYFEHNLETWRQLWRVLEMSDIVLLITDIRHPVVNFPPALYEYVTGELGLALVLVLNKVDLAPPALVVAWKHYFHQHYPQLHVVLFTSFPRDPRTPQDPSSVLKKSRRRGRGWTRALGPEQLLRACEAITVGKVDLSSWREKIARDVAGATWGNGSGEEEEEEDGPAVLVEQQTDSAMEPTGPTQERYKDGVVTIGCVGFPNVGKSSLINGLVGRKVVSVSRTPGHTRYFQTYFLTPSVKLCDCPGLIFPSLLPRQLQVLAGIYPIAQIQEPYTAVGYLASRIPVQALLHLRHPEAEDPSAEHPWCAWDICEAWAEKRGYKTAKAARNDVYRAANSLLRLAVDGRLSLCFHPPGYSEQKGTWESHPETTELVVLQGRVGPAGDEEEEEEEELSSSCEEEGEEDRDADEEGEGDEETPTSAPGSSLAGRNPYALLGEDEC
UniProt O14653: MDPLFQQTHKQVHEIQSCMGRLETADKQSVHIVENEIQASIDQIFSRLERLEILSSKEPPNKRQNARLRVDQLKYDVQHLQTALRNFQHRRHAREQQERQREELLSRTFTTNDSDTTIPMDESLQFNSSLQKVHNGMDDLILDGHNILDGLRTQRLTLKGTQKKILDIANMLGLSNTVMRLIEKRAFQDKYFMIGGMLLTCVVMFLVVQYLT
UniProt Q2TAP0: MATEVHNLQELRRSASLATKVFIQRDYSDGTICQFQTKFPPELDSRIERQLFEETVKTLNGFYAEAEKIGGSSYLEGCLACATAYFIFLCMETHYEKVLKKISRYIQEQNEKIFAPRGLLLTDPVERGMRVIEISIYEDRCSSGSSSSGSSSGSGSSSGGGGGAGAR
UniProt P06280: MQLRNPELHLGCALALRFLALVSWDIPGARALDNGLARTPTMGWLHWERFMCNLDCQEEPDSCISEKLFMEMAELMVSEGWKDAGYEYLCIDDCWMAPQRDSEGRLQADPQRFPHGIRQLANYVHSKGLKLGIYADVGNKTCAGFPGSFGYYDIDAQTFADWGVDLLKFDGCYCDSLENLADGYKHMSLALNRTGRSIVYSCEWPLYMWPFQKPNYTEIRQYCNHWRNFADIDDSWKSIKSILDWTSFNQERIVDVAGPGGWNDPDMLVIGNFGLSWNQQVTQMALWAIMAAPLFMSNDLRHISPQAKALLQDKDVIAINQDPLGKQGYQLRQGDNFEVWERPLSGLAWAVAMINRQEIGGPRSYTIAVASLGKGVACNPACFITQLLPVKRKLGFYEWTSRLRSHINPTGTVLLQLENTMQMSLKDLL
UniProt O75420: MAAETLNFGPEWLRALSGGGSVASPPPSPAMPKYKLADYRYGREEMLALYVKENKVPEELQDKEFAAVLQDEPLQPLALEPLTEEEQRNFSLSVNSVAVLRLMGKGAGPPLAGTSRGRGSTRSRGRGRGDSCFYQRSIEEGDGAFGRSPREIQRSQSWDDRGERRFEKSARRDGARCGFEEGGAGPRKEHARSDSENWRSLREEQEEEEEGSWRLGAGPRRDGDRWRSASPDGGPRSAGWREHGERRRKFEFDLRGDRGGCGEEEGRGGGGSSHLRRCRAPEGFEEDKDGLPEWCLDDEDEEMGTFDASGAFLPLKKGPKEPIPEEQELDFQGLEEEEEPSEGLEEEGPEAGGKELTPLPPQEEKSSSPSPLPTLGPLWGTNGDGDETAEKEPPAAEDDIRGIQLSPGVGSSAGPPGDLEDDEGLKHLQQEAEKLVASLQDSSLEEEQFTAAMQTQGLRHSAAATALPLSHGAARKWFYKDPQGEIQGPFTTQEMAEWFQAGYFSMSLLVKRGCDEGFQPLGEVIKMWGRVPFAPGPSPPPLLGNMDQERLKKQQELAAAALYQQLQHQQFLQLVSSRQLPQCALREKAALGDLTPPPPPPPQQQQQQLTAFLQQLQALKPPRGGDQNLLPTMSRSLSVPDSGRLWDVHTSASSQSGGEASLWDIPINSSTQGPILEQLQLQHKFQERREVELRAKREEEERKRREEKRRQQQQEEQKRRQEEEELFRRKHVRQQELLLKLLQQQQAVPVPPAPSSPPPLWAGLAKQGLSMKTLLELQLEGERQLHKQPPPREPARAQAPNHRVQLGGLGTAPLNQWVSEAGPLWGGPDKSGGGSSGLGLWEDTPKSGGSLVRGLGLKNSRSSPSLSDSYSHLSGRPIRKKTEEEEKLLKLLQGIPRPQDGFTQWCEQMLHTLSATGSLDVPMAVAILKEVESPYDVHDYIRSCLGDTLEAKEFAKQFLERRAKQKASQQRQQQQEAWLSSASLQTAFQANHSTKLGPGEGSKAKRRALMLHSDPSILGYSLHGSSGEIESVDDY
UniProt Q9H9Y4: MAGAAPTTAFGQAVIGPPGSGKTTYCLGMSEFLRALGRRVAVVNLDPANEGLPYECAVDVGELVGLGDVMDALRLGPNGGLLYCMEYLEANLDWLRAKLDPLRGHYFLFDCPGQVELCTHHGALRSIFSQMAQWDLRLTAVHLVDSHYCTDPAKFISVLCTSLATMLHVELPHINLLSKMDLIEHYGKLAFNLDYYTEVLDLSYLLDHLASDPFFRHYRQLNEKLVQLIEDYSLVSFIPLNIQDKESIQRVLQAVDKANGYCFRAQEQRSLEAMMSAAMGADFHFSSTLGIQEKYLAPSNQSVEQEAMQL
UniProt P15586: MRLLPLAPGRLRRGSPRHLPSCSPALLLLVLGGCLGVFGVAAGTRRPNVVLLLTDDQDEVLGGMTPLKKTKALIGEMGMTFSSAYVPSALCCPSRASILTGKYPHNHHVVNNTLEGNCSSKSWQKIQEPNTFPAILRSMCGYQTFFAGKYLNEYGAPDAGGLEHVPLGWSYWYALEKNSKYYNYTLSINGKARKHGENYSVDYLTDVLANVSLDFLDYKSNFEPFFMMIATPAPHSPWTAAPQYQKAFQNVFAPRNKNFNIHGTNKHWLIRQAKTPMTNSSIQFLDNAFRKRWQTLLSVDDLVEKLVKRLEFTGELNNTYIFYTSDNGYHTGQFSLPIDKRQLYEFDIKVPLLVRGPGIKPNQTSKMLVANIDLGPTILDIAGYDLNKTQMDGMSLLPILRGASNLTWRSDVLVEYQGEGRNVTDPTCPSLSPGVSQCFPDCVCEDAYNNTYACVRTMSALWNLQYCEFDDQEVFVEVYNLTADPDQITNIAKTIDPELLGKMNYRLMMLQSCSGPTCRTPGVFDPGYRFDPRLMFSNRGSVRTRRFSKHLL
UniProt O94923: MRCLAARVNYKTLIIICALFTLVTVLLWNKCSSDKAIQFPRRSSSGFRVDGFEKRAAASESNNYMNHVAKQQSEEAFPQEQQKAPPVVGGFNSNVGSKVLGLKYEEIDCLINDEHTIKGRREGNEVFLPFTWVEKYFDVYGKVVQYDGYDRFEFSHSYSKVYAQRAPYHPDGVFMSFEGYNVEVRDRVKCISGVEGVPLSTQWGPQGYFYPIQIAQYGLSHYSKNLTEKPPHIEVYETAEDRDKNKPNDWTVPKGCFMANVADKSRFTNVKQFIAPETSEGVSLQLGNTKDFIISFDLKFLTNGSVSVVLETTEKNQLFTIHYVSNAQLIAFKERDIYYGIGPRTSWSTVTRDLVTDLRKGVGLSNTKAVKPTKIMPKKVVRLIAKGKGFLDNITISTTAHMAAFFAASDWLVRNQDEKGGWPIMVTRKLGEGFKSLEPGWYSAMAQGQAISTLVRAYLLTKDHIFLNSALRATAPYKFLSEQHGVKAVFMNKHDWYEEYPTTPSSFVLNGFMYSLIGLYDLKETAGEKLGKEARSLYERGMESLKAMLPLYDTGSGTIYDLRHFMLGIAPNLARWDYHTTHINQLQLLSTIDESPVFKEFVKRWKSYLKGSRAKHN
UniProt Q9H4G4: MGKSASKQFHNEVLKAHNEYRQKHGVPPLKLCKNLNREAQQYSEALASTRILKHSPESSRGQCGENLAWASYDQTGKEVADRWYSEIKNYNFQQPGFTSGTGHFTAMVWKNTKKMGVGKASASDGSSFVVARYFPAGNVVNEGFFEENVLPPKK
UniProt Q9H4A5: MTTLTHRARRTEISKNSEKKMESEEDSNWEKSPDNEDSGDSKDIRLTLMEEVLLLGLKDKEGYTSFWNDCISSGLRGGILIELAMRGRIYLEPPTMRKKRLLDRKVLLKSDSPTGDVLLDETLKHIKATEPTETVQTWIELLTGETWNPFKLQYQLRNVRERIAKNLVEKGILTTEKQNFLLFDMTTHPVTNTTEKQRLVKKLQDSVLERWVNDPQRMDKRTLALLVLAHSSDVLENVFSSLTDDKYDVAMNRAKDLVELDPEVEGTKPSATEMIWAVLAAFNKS
UniProt Q9H4A6: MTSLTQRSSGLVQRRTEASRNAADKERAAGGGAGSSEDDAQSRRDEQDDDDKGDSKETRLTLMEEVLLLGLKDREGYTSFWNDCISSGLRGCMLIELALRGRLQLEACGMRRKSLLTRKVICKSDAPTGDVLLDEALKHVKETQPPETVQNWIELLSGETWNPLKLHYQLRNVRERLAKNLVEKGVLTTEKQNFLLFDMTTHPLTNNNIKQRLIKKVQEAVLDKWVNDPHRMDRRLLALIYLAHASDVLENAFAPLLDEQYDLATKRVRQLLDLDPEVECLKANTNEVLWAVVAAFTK
UniProt P49448: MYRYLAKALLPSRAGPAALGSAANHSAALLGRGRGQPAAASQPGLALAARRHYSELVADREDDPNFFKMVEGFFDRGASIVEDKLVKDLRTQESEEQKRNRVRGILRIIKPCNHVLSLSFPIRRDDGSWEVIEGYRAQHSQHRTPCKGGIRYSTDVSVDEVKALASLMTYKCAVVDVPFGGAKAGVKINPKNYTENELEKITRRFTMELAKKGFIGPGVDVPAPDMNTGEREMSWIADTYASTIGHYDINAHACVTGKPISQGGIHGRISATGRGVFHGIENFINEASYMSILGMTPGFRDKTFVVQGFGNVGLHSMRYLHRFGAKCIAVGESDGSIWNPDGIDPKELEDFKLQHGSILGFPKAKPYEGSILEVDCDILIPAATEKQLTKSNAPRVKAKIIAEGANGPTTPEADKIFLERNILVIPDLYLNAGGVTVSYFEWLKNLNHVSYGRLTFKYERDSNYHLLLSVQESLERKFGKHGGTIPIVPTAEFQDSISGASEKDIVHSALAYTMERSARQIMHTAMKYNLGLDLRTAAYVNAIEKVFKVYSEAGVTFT
UniProt P63218: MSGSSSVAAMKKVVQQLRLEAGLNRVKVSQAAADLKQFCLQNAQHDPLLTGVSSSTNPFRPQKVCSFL

crizotinib = compound: C[C@@H](Oc1cc(-c2cnn(C3CCNCC3)c2)cnc1N)c1c(Cl)ccc(F)c1Cl [crizotinib]
Summary of the method: as §1

[2] = compound: C[C@@H]1COCCN1C2=NC(=NC(=C2)C3(CC3)S(=O)(=O)C)C4=C5C=CNC5=CC=C4
Summary of the method: as §1

[3] = compound: C[C@H](C1=CC=C(C=C1)C(=O)NC2=C3C=CNC3=NC=C2)N
Summary of the method: as §1

gandotinib = compound: Cc1cc(Nc2cc(CN3CCOCC3)c3nc(C)c(Cc4ccc(Cl)cc4F)n3n2)n[nH]1 [gandotinib]
Summary of the method: as §1

[4] = compound: Cc1cc(SCc2sc(-c3ccc(C(F)(F)F)cc3)nc2C)ccc1OCC(=O)O
Summary of the method: as §1

doramapimod = compound: Cc1ccc(-n2nc(C(C)(C)C)cc2NC(=O)Nc2ccc(OCCN3CCOCC3)c3ccccc23)cc1 [doramapimod]
Summary of the method: as §1

ispinesib = compound: Cc1ccc(C(=O)N(CCCN)[C@@H](c2nc3cc(Cl)ccc3c(=O)n2Cc2ccccc2)C(C)C)cc1 [ispinesib]
Summary of the method: as §1

duvelisib = compound: C[C@H](Nc1ncnc2nc[nH]c12)c1cc2cccc(Cl)c2c(=O)n1-c1ccccc1 [duvelisib]
Summary of the method: as §1

tozasertib = compound: Cc1cc(Nc2cc(N3CCN(C)CC3)nc(Sc3ccc(NC(=O)C4CC4)cc3)n2)n[nH]1 [tozasertib]
Summary of the method: as §1

Target	log2 fold change [1]	log2 fold change (crizotinib)	log2 fold change [2]	log2 fold change [3]	log2 fold change (gandotinib)	log2 fold change [4]	log2 fold change (doramapimod)	log2 fold change (ispinesib)	log2 fold change (duvelisib)	log2 fold change (tozasertib)
GIGYF2 (UniProt Q6Y7W6)	inactive: 0.005	inactive: -0.084	inactive: 0.083	inactive: 0	inactive: -0.03	inactive: 0.114	inactive: -0.028	inactive: -0.179		
GPX4 (UniProt P36969)	inactive: 0.014	inactive: 0.079	inactive: 0.011	inactive: -0.072	inactive: 0.013	inactive: -0.017	inactive: -0.039	inactive: 0.213		
GLS (UniProt O94925)	inactive: 0.033	inactive: 0.05	inactive: 0.209	inactive: -0.049	inactive: -0.17	inactive: 0.054	inactive: -0.105	inactive: 0.118		
GOLGB1 isoform 2 (UniProt Q14789)	inactive: -0.135	inactive: -0.012	active: -0.314	inactive: 0.19	inactive: -0.031	inactive: -0.025	inactive: 0.056	inactive: 0.012		
GPAT4 (UniProt Q86UL3)	inactive: 0.15	active: 0.287	inactive: 0.066	inactive: -0.071	inactive: -0.009	inactive: 0.061	inactive: -0.063	inactive: 0.194		
GPS2 (UniProt Q13227)	inactive: -0.114	inactive: 0.019	inactive: 0.208				inactive: 0.047	active: 0.31		
GLRX3 (UniProt O76003)	inactive: 0.03	inactive: 0.098	inactive: 0.06	inactive: -0.068	inactive: -0.094	inactive: 0.041	inactive: -0.075	inactive: 0.068		
GLYR1 (UniProt Q49A26)	inactive: 0.033	inactive: 0.008	inactive: -0.125	inactive: 0.075	inactive: 0.016	inactive: -0.06	inactive: 0.117	inactive: -0.132		
GNL1 (UniProt P36915)	inactive: 0.051	inactive: -0.014	inactive: 0.162	inactive: -0.011	inactive: 0.028	inactive: 0.052	inactive: -0.019	inactive: 0.087		
GOSR2 isoform 2 (UniProt O14653)	inactive: -0.052	inactive: -0.085		inactive: -0.124	inactive: -0.075	inactive: 0.025	inactive: -0.061	inactive: 0.024	inactive: 0.099	inactive: -0.006
GOLGA7B (UniProt Q2TAP0)	inactive: 0.052	inactive: 0.088		inactive: -0.08		inactive: -0.007	inactive: 0	inactive: -0.007	inactive: 0.058	inactive: -0.061
GLA (UniProt P06280)	inactive: -0.033	inactive: -0.205	inactive: -0.019	inactive: 0.018	inactive: -0.066	inactive: 0.034	inactive: -0.036	inactive: -0.148		
GNAI3 (UniProt P08754)	inactive: 0.121	inactive: 0.103	inactive: -0.122	inactive: 0.003	inactive: 0.039	inactive: -0.014	inactive: 0.036	inactive: -0.008		
GIT1 isoform 3 (UniProt Q9Y2X7)	inactive: -0.106	inactive: -0.372	inactive: 0.014	inactive: 0.181		inactive: -0.059	inactive: 0.029	inactive: -0.23	inactive: 0	
GPAM (UniProt Q9HCL2)	inactive: 0.006	inactive: 0.144	inactive: -0.001		inactive: 0.123		inactive: 0.253	inactive: -0.083		inactive: 0.107
GLCCI1 (UniProt Q86VQ1)	inactive: -0.008	inactive: 0.045	inactive: 0.024	inactive: 0.026	inactive: 0.079	inactive: 0.044	inactive: -0.032	inactive: 0.239		
GIGYF1 (UniProt O75420)	inactive: 0.017	inactive: 0.045	inactive: -0.062	inactive: 0.119	inactive: 0.098		inactive: -0.075	inactive: -0.013		
GPN2 (UniProt Q9H9Y4)	inactive: -0.097	inactive: 0.071		inactive: 0.02	inactive: -0.034	inactive: -0.026	inactive: 0.018	inactive: 0.075	inactive: 0.151	inactive: -0.033
GNS (UniProt P15586)	inactive: 0.001	inactive: -0.115	inactive: 0.046	inactive: -0.032	inactive: 0.061	inactive: -0.028	inactive: 0.016	inactive: -0.021		
GNB2 (UniProt P62879)	inactive: 0.084	inactive: 0.134	inactive: 0.024	inactive: -0.13	inactive: -0.095	inactive: 0	inactive: 0.009	inactive: 0.062		
GLCE (UniProt O94923)	inactive: -0.012	inactive: 0.116		inactive: 0.037			inactive: 0.047			
GLIPR2 (UniProt Q9H4G4)	inactive: 0.034	inactive: -0.243	inactive: -0.018	inactive: -0.064	inactive: 0.157	inactive: 0.007	inactive: -0.01	active: -0.459		
GLUD1 (UniProt P00367)	inactive: 0.16	inactive: -0.016	inactive: 0.058	inactive: 0.005	inactive: 0.141	inactive: -0.057	inactive: 0.048	inactive: -0.048		
GOLPH3L (UniProt Q9H4A5)	inactive: 0.169	inactive: 0.072	inactive: -0.028		inactive: 0.09		inactive: 0.287			
GOLPH3 (UniProt Q9H4A6)	inactive: -0.028	inactive: 0.176	inactive: 0.006	inactive: -0.038	inactive: -0.112	inactive: 0.012	inactive: -0.011	active: 0.379		
GNAS (UniProt Q5JWF2)	inactive: 0.049	inactive: 0.047	inactive: 0.039	inactive: -0.031	inactive: -0.034	inactive: 0.003	inactive: 0.007	inactive: -0.141		
GLS isoform 3 (UniProt O94925)	inactive: 0.038	inactive: 0.021	inactive: 0.256	inactive: -0.007	inactive: -0.264	inactive: 0.064	inactive: 0.023	inactive: 0.219		
GLUD2 (UniProt P49448)	inactive: 0.102	inactive: 0.003	inactive: 0.011	inactive: -0.062	inactive: 0.064	inactive: 0.016	inactive: 0.041	inactive: 0		
GNG5 (UniProt P63218)	inactive: 0.014	inactive: 0.094	inactive: 0.207	inactive: -0.13	inactive: 0.055	inactive: -0.071	inactive: 0.008	inactive: 0.216		
GPT2 (UniProt Q8TD30)				inactive: -0.005	inactive: -0.089	inactive: 0.03		inactive: -0.175	inactive: 0.141	inactive: -0.204

Exported comma-delimited: part of the list above
Target,log2 fold change [1],log2 fold change (crizotinib),log2 fold change [2],log2 fold change [3],log2 fold change (gandotinib),log2 fold change [4],log2 fold change (doramapimod),log2 fold change (ispinesib),log2 fold change (duvelisib),log2 fold change (tozasertib)
GLA (UniProt P06280),inactive: -0.033,inactive: -0.205,inactive: -0.019,inactive: 0.018,inactive: -0.066,inactive: 0.034,inactive: -0.036,inactive: -0.148,,
GNS (UniProt P15586),inactive: 0.001,inactive: -0.115,inactive: 0.046,inactive: -0.032,inactive: 0.061,inactive: -0.028,inactive: 0.016,inactive: -0.021,,
